Measured values from publication PMC9785488, “EBF1 Negatively Regulates Brassinosteroid-Induced Apical Hook Development and Cell Elongation through Promoting BZR1 Degradation” (International Journal of Molecular Sciences, 2022).
These are yes or no findings as the source states them, for the method shown. For some assays here: In cells and extracts the contact can be indirect. Some binding calls cover weakened binding; strength is not graded here. For some assays here: Tags and fused reporters may be left off the sequences shown.

Sequences of proteins named here, by UniProt entry; tags and fusion partners are left off.
UniProt Q9LN63: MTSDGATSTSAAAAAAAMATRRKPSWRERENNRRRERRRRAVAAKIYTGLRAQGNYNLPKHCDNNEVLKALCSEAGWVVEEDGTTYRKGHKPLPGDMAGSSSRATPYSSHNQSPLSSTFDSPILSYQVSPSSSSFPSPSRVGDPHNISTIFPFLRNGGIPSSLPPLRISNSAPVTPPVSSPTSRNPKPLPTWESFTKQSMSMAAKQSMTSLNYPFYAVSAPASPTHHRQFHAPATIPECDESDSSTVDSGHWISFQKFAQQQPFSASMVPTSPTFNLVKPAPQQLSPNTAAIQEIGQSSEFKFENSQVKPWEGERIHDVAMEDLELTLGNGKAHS

Key:
[1] = target: T1, EIN3 BINDING F-BOX PROTEIN1 (EBF1), two-hybrid bait in pBD-GAL4 (Arabidopsis thaliana) (UniProt Q9SKK0); assay: two-hybrid; preys in pAD-GAL4, baits in pBD-GAL4, yeast strain AH109; growth on SD (-Trp-Leu-His) with 1.5 mM 3-AT
T1 sequence: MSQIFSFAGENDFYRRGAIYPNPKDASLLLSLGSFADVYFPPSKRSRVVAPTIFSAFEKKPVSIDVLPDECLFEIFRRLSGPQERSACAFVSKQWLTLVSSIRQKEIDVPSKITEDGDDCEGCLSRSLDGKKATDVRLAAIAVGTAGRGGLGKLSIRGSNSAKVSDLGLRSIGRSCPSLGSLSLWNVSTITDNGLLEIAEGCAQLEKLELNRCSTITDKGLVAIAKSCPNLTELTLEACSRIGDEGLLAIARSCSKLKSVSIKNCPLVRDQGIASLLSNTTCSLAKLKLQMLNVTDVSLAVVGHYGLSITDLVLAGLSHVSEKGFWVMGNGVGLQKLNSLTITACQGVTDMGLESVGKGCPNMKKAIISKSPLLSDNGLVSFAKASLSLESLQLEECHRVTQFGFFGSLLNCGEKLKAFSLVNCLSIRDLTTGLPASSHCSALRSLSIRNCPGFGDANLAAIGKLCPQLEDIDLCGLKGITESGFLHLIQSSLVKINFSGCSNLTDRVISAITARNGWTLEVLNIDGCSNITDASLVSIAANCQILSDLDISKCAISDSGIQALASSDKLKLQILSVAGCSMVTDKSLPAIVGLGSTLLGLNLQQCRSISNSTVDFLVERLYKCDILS

[2] = target: T2, EBF2, two-hybrid bait in pBD-GAL4 (Arabidopsis thaliana) (UniProt Q708Y0); assay: as above
T2 sequence: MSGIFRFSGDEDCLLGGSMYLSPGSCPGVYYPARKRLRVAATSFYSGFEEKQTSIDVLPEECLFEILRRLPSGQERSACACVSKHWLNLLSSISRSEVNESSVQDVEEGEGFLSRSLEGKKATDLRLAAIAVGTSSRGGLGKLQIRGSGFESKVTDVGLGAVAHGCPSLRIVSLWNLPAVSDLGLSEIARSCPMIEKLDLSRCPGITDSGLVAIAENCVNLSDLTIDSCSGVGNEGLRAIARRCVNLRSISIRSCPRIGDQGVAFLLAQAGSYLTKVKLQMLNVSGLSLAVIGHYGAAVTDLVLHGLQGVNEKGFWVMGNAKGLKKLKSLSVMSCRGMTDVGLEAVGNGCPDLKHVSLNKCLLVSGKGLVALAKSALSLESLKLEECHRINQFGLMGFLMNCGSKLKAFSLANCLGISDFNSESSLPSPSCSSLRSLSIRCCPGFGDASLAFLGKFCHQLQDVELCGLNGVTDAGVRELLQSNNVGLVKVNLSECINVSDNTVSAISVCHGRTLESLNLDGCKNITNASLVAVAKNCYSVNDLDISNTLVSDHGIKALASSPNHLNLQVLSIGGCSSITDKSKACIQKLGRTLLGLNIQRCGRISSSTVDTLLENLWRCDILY

[3] = target: BZR1-cYFP (Arabidopsis thaliana) (UniProt Q8S307); assay: split reporter; BiFC of cYFP and nYFP fusions in Arabidopsis mesophyll protoplasts, 10 h at 22 °C, confocal microscopy
[4] = target: BZR1-GFP (pro35S:BZR1-GFP) (Arabidopsis thaliana) (UniProt Q8S307); assay: co-IP; Arabidopsis Col-0 protoplasts co-expressing EBF1-MYC and BZR1-GFP; lysate on GFP-Trap magnetic beads; 20 mM HEPES-KOH pH 7.5, 40 mM KCl, 1 mM EDTA, 0.5% Triton X-100; blots with anti-MYC and anti-YFP

For “BRASSINAZOLE-…1 (BZR1), two-hybrid prey in pAD-GAL4 (from UniProt Q8S307 1-336)”, the binding [1] was “binds”.

With “BRI1-EMS-SUPPRESSOR1 (BES1), two-hybrid prey in pAD-GAL4 (from UniProt Q9LN63 1-335)” the binding [2] was “binds” and the binding [1] was “binds”.

B1: EBF1-nYFP (protein, UniProt Q9SKK0 1-628)
chain: MSQIFSFAGENDFYRRGAIYPNPKDASLLLSLGSFADVYFPPSKRSRVVAPTIFSAFEKKPVSIDVLPDECLFEIFRRLSGPQERSACAFVSKQWLTLVSSIRQKEIDVPSKITEDGDDCEGCLSRSLDGKKATDVRLAAIAVGTAGRGGLGKLSIRGSNSAKVSDLGLRSIGRSCPSLGSLSLWNVSTITDNGLLEIAEGCAQLEKLELNRCSTITDKGLVAIAKSCPNLTELTLEACSRIGDEGLLAIARSCSKLKSVSIKNCPLVRDQGIASLLSNTTCSLAKLKLQMLNVTDVSLAVVGHYGLSITDLVLAGLSHVSEKGFWVMGNGVGLQKLNSLTITACQGVTDMGLESVGKGCPNMKKAIISKSPLLSDNGLVSFAKASLSLESLQLEECHRVTQFGFFGSLLNCGEKLKAFSLVNCLSIRDLTTGLPASSHCSALRSLSIRNCPGFGDANLAAIGKLCPQLEDIDLCGLKGITESGFLHLIQSSLVKINFSGCSNLTDRVISAITARNGWTLEVLNIDGCSNITDASLVSIAANCQILSDLDISKCAISDSGIQALASSDKLKLQILSVAGCSMVTDKSLPAIVGLGSTLLGLNLQQCRSISNSTVDFLVERLYKCDILS
B1 was tested, and the binding [3] was “binds”.

B2: EBF1-MYC (pro35S:EBF1-MYC) (protein, UniProt Q9SKK0 1-628)
chain: MSQIFSFAGENDFYRRGAIYPNPKDASLLLSLGSFADVYFPPSKRSRVVAPTIFSAFEKKPVSIDVLPDECLFEIFRRLSGPQERSACAFVSKQWLTLVSSIRQKEIDVPSKITEDGDDCEGCLSRSLDGKKATDVRLAAIAVGTAGRGGLGKLSIRGSNSAKVSDLGLRSIGRSCPSLGSLSLWNVSTITDNGLLEIAEGCAQLEKLELNRCSTITDKGLVAIAKSCPNLTELTLEACSRIGDEGLLAIARSCSKLKSVSIKNCPLVRDQGIASLLSNTTCSLAKLKLQMLNVTDVSLAVVGHYGLSITDLVLAGLSHVSEKGFWVMGNGVGLQKLNSLTITACQGVTDMGLESVGKGCPNMKKAIISKSPLLSDNGLVSFAKASLSLESLQLEECHRVTQFGFFGSLLNCGEKLKAFSLVNCLSIRDLTTGLPASSHCSALRSLSIRNCPGFGDANLAAIGKLCPQLEDIDLCGLKGITESGFLHLIQSSLVKINFSGCSNLTDRVISAITARNGWTLEVLNIDGCSNITDASLVSIAANCQILSDLDISKCAISDSGIQALASSDKLKLQILSVAGCSMVTDKSLPAIVGLGSTLLGLNLQQCRSISNSTVDFLVERLYKCDILS
In the case of B2, the binding [4] is reported as “binds”.
